Laboratory results reported in the supplement of paper PMC9233669.
This sample is rich in variants without activity.

Tests used:
biotinyl-Leu-oxazolone = assay: self-aminoacylation, catalytic enhancement (BLO) (fold over background); higher = more active; k-Seq, kA / k0A0; sequences stand for … in GGGAAUGGAUCCACAUCUACGAAUUC…UUCACUGCAGACUUGACGAAGCUG
Summary of the method: (§1)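 Mutagenized RNA pools with a 21-nt variable region (0.43 μM) reacted with each biotinyl-aminoacyl-oxazolone at 2–1250 μM. Reactions ran in 50 μL HEPES/NaCl/KCl/MgCl2/CaCl2 buffer with 5% acetonitrile, pH 6.9–7.0, for 90 minutes at room temperature. Streptavidin-captured RNA was quantified by triplicate qPCR and Illumina sequencing, and per-sequence fraction reacted was fit to a pseudo-first-order model with 1000 bootstraps. Catalytic enhancement is median kA divided by the uncatalyzed rate, the low-activity peak of a bimodal Gaussian fit.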

biotinyl-Ile-oxazolone = assay: self-aminoacylation, catalytic enhancement (BIO) (fold over background); higher = more active; k-Seq, kA / k0A0; sequences stand for … in GGGAAUGGAUCCACAUCUACGAAUUC…UUCACUGCAGACUUGACGAAGCUG
Summary of the method: as §1

biotinyl-Phe-oxazolone = assay: self-aminoacylation, catalytic enhancement (BFO) (fold over background); higher = more active; k-Seq, kA / k0A0; sequences stand for … in GGGAAUGGAUCCACAUCUACGAAUUC…UUCACUGCAGACUUGACGAAGCUG
Summary of the method: as §1

biotinyl-Trp-oxazolone = assay: self-aminoacylation, catalytic enhancement (BWO) (fold over background); higher = more active; k-Seq, kA / k0A0; sequences stand for … in GGGAAUGGAUCCACAUCUACGAAUUC…UUCACUGCAGACUUGACGAAGCUG
Summary of the method: as §1

biotinyl-Val-oxazolone = assay: self-aminoacylation, catalytic enhancement (BVO) (fold over background); higher = more active; k-Seq, kA / k0A0; sequences stand for … in GGGAAUGGAUCCACAUCUACGAAUUC…UUCACUGCAGACUUGACGAAGCUG
Summary of the method: as §1

biotinyl-Met-oxazolone = assay: self-aminoacylation, catalytic enhancement (BMO) (fold over background); higher = more active; k-Seq, kA / k0A0; sequences stand for … in GGGAAUGGAUCCACAUCUACGAAUUC…UUCACUGCAGACUUGACGAAGCUG
Summary of the method: as §1

| Sequence | self-aminoacylation (biotinyl-Leu-oxazolone) | self-aminoacylation (biotinyl-Ile-oxazolone) | self-aminoacylation (biotinyl-Phe-oxazolone) | self-aminoacylation (biotinyl-Trp-oxazolone) | self-aminoacylation (biotinyl-Val-oxazolone) | self-aminoacylation (biotinyl-Met-oxazolone) |
| --- | --- | --- | --- | --- | --- | --- |
| AUCACCCUGGUCAUCGAGUCA [Fam2.1 aminoacylation ribozyme variant] | 0.847 | 0.895 | 0.672 | 0.571 | 0.989 | 1.12 |
| AUCCACCUAGUUCAUCGGGUG [Fam2.2 aminoacylation ribozyme variant] | 4.83 | 2.9 | 24.1 | 4.63 | 3.24 | 3.53 |
| AUGACCCUGGUCAUCGAGAGA [Fam2.1 aminoacylation ribozyme variant] | 1.52 | 1.28 | 2.57 | 1.36 | 1.34 | 1.47 |
| AUGACCCUGGUCAUCGAUUGA [Fam2.1 aminoacylation ribozyme variant] | 1.14 | 1.07 | 0.924 | 0.593 | 1.16 | 1.3 |
| AUGAUUGCUAAUAGUCGCAAG [Fam3.1 aminoacylation ribozyme variant] | 1.53 | 1.34 | 2.06 | 1.61 | 1.24 | 1.67 |
| AUGCACCUAAGUCAUCGGGUG [Fam2.2 aminoacylation ribozyme variant] | 10.5 | 5.66 | 58.2 | 8.67 | 4.84 | 8.76 |
| AUGUUUCCUAAUAGUCGCAAG [Fam3.1 aminoacylation ribozyme variant] | 1.05 | 1.18 | 0.67 | 0.995 | 1.17 | 1 |
| AUGUUUGCUAAUAGUUGCAAG [Fam3.1 aminoacylation ribozyme variant] | 1.01 | 1.18 | 1.4 | 1.16 | 1.03 | 1.15 |
| AUUAACCUAGGUCAUCGGAUG [Fam2.2 aminoacylation ribozyme variant] | 0.699 | 0.927 | 0.454 | 0.823 | 0.977 | 0.818 |
| AUUAACCUAUGUCAUCGGGUG [Fam2.2 aminoacylation ribozyme variant] | 6.82 | 3.43 | 36 | 5.05 | 3.13 | 5.3 |
| AUUAACCUGGACAUCGAGUGA [Fam2.1 aminoacylation ribozyme variant] | 6.88 | 2.99 | 32.9 | 8.58 | 2.89 | 6.63 |
| AUUACACUGGUCAUCCAGUGA [Fam2.1 aminoacylation ribozyme variant] | 3.01 | 1.69 | 9.37 | 3.06 | 1.93 | 3.47 |
| AUUACACUGGUCAUCGAUUGA [Fam2.1 aminoacylation ribozyme variant] | 0.905 | 0.92 | 0.701 | 0.662 | 0.863 | 0.897 |
| AUUACCAUGGUCAUCGAGUGC [Fam2.1 aminoacylation ribozyme variant] | 1.47 | 1.12 | 0.948 | 1.35 | 1.17 | 1.38 |
| AUUACCAUGGUCAUUGAGUGA [Fam2.1 aminoacylation ribozyme variant] | 12.1 | 5.76 | 63.6 | 13.8 | 5.51 | 11.8 |
| AUUACCCCGGUCAACGAGUGA [Fam2.1 aminoacylation ribozyme variant] | 4.74 | 3.08 | 28.2 | 6.44 | 3.47 | 5.86 |
| AUUACCCCGGUCAUCGAGUGC [Fam2.1 aminoacylation ribozyme variant] | 1.04 | 0.849 | 0.415 | 1.19 | 1.09 | 1.18 |
| AUUACCCGGGUAAUCGAGUGA [Fam2.1 aminoacylation ribozyme variant] | 13.9 | 5.16 | 81 | 13.2 | 5.84 | 12.1 |
| AUUACCCGGGUCAUUGAGUGA [Fam2.1 aminoacylation ribozyme variant] | 8.98 | 4.35 | 56.8 | 10.8 | 4.83 | 9.41 |
| AUUACCCUACUCAUCGAGUGA [Fam2.1 aminoacylation ribozyme variant] | 6.54 | 3.24 | 35.1 | 9 | 3.19 | 7.19 |
| AUUACCCUCGUCAUCGAAUGA [Fam2.1 aminoacylation ribozyme variant] | 0.692 | 0.744 | 0.573 | 0.356 | 0.849 | 0.728 |
| AUUACCCUCGUCAUCGAGUGU [Fam2.1 aminoacylation ribozyme variant] | 2 | 1.34 | 1.56 | 1.49 | 1.4 | 1.88 |
| AUUACCCUCGUCGUCGAGUGA [Fam2.1 aminoacylation ribozyme variant] | 2.04 | 1.45 | 3.84 | 2.11 | 1.35 | 1.85 |
| AUUACCCUGAGCAUCGAGUGA [Fam2.1 aminoacylation ribozyme variant] | 3.99 | 2.06 | 8.97 | 4.96 | 2.45 | 4.43 |
| AUUACCCUGAUCAUCGAGUAA [Fam2.1 aminoacylation ribozyme variant] | 1.02 | 1.25 | 1.09 | 0.877 | 1.32 | 1.33 |
| AUUACCCUGCUCAUCGAGUUA [Fam2.1 aminoacylation ribozyme variant] | 0.715 | 0.729 | 0.68 | 0.544 | 0.798 | 0.674 |
